Measured values: article doi:10.1101/2024.12.20.629780v2 (bioRxiv, 2024)

Experiment: Circular dichroism secondary structure
Type: physicochemical
Settings: CD, 50 µmol L-1 peptide, 25 °C, BeStSel

Sequence | α-helical structure fraction in water [%]
RLKSILLLIVTKINIRLKIA [Turingcin-7] | 39
RRWVHKILLIIIKILA [Turingcin-1] | 31.4
WYLIRVALIAFKKA [Turingcin-21] | 29.5
